Experimental data published in PMC5056459, “Antagonistic roles of Drosophila Tctp and Brahma in chromatin remodelling and stabilizing repeated sequences” (Nature Communications, 2016).
Results are given in words; binding and its absence hold for the method and conditions named. In cells and extracts the contact can be indirect. For some of these results: A result given as binding can be weak or reduced; the word gives no strength. Sequences can lack the tags named with a protein.

Amino acid sequences for entries named in this document (tags omitted). A change or cut given only in a name is not applied to a line headed by its entry.
UniProt P25439: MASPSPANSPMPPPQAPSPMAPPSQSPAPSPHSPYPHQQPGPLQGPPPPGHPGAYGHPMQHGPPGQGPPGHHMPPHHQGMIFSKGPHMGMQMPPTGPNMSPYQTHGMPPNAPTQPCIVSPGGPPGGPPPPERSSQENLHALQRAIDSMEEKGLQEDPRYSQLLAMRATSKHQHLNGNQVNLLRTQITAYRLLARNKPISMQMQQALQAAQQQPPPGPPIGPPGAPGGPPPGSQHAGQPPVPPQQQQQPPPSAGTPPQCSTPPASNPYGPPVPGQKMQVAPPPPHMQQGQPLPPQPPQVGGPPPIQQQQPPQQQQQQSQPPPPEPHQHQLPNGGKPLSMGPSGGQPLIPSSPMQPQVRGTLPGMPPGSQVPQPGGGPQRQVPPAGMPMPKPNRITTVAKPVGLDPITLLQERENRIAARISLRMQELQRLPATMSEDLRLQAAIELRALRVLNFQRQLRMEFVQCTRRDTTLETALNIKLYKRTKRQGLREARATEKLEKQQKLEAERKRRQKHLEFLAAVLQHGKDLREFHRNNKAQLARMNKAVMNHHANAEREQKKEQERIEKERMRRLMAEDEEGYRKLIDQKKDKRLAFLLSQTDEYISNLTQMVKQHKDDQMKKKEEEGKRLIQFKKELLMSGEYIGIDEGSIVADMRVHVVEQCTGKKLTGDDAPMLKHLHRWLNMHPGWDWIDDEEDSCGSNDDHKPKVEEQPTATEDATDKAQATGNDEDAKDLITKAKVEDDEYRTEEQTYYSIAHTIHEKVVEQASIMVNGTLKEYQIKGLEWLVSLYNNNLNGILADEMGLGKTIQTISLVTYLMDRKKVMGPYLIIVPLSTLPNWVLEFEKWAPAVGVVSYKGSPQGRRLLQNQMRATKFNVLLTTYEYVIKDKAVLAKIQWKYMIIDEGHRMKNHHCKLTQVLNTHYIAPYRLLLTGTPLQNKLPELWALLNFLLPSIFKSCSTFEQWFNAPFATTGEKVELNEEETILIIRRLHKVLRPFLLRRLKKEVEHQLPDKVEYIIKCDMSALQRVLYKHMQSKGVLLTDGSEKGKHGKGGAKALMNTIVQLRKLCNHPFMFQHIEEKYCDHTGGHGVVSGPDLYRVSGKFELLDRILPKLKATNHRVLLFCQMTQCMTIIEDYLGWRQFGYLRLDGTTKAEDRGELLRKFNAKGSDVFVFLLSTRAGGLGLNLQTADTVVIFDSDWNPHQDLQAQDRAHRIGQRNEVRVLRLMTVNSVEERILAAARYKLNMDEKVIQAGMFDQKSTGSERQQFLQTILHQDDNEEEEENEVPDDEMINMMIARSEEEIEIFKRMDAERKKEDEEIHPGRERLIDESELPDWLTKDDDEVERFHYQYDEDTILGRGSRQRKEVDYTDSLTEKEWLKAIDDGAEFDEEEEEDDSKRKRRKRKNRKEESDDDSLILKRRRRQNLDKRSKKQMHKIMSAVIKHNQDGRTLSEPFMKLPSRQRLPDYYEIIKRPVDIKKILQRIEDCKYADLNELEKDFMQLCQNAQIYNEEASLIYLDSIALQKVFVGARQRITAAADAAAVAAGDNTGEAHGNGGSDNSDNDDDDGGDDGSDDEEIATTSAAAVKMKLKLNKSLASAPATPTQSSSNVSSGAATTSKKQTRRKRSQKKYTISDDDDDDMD

What was measured:
[1] = molecular target: 2xFLAG-tagged full length Brm ΔBRK (Drosophila) (UniProt P25439); assay: co-IP; nuclear extract of transfected S2 cells, treated with benzonase 100 U per ml for 1 h in IP buffer (20 mM HEPES pH 7.4, 80 mM KCl, 0.2% NP-40); IP with anti-MYC, anti-FLAG or anti-Pol-II at 4 °C for 2 h; western blot; for ARP4/Act (Fig. 2a) cells with or without Tctp knock-down by dsRNA
[2] = molecular target: 2xFLAG-tagged full length Brm ΔHSA (Drosophila) (UniProt P25439); assay: as above
[3] = molecular target: 2xFLAG-tagged full length Brm ΔHSAΔBRK (Drosophila) (UniProt P25439); assay: as above
[4] = molecular target: GST-Brm 304-747 ΔHSA, ΔBRK (Drosophila) (UniProt P25439); assay: pull-down; GST-Brm fragments as baits, MBP-Tctp as prey, 5 micrograms each; PDB (20 mM Tris-HCl pH 7.5, 150 mM NaCl, 0.5 mM EDTA, 10% glycerol, 0.1% Triton X-100, 1 mM DTT) with 0.2% BSA, 2-3 h at 4 °C; western blot with anti-GST and anti-MBP; proteins extracted from E. coli and dialysed; both purified

| binding [1] | binding [2] | binding [3] | binding [4] | Binder |
| --- | --- | --- | --- | --- |
| binds | binds | binds weakly | – | 2xMYC-Tctp (protein, UniProt Q9VGS2 1-172) MKIYKDIITGDEMFADTYKMKLVDDVIYEVYGKLITRQGDDIKLEGANASAEEADEGTDITSESGVDVVLNHRLTECFAFGDKKSYTLYLKDYMKKVLAKLEEKSPDQVDIFKTNMNKAMKDILGRFKELQFFTGESMDCDGMVALVEYREINGDSVPVLMFFKHGLEEEKC |
| – | – | – | no binding | MBP-Tctp (natural protein, Drosophila, UniProt Q9VGS2 1-172, looked up, Drosophila Tctp in pMAL-c2; also called MBP-tagged Tctp; source: E. coli Rosetta2, extracted and dialysed) MKIYKDIITGDEMFADTYKMKLVDDVIYEVYGKLITRQGDDIKLEGANASAEEADEGTDITSESGVDVVLNHRLTECFAFGDKKSYTLYLKDYMKKVLAKLEEKSPDQVDIFKTNMNKAMKDILGRFKELQFFTGESMDCDGMVALVEYREINGDSVPVLMFFKHGLEEEKC |
